Results are given in words; binding and its absence hold for the method and conditions named. In cells and extracts the contact can be indirect. Some results given as binding are weak or reduced against the parent protein; the word gives no strength.

Amino acid sequences for entries named in this document (tags omitted).
UniProt Q9NYD6: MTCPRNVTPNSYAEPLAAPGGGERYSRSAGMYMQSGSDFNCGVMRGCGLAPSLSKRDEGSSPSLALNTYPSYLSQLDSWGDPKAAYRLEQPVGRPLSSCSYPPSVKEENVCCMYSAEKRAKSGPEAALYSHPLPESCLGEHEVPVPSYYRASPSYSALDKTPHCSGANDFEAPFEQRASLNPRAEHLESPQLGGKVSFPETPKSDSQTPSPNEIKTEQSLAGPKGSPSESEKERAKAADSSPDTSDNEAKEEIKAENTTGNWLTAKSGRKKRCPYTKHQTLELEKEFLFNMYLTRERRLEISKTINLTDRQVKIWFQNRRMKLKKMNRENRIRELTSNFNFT

Experiment [1] addresses T1, Forkhead Box A3 (FOXA3) (human (endogenous in ESCC cell lines)) (UniProt P55318).
T1 sequence: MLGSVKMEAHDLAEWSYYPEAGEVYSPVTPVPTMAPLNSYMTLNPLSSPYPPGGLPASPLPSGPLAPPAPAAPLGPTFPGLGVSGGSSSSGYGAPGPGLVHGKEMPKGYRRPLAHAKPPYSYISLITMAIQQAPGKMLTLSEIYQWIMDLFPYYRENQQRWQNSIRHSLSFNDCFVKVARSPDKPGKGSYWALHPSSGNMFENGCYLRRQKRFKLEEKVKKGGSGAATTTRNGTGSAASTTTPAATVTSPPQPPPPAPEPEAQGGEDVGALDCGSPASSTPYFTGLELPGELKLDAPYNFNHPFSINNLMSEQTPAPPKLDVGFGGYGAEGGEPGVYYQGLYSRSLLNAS
Kind of experiment: co-IP; total protein (500 ug) from ESCC cells in RIPA lysis buffer; incubated with anti-HOXC10, anti-FOXA3 or IgG overnight at 4 C; Protein G/A agarose beads 2 h; washed with PBS three times; western blot for FOXA3 and HOXC10. On the technique in general: A western blot detects proteins with antibodies after separation by electrophoresis.

Experiment [2] deals with HomeoboxC10 (HOXC10) (human (endogenous in ESCC cell lines)) (UniProt Q9NYD6). The description is as above.

Turning to “HomeoboxC10 (HOXC10) (from UniProt Q9NYD6 1-342)”, the binding result in experiment [1] was “binds”.

B1: Forkhead Box A3 (FOXA3) (protein, UniProt P55318 1-350)
chain: MLGSVKMEAHDLAEWSYYPEAGEVYSPVTPVPTMAPLNSYMTLNPLSSPYPPGGLPASPLPSGPLAPPAPAAPLGPTFPGLGVSGGSSSSGYGAPGPGLVHGKEMPKGYRRPLAHAKPPYSYISLITMAIQQAPGKMLTLSEIYQWIMDLFPYYRENQQRWQNSIRHSLSFNDCFVKVARSPDKPGKGSYWALHPSSGNMFENGCYLRRQKRFKLEEKVKKGGSGAATTTRNGTGSAASTTTPAATVTSPPQPPPPAPEPEAQGGEDVGALDCGSPASSTPYFTGLELPGELKLDAPYNFNHPFSINNLMSEQTPAPPKLDVGFGGYGAEGGEPGVYYQGLYSRSLLNAS
Turning to B1, in experiment [2], the binding entry was “binds”.

For the origin of these results see publication PMC10590975.
